Experimental data: PubChem BioAssay AID1508597 (Cure First, 2020)
Screen: 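Survival screen with siRNA in ovarian cancer cells derived from patients, with or without rucaparib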 (primary screen). Cell system: human ovarian carcinoma lines grown from tumours: OCI-P5x (papillary serous) and OCI-C5x (clear cell). Reagent: siRNA pool against human genes, 1.25 pmol siRNA per well. Duration: 72 h or 96 h, depending on the cell culture. Treatment: rucaparib 20 µM (about IC30) or vehicle, present until read-out. Rucaparib or vehicle: Rucaparib. Cell line: OCI-P5x (serous). Detection: 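ATP luminescence measured at 72 or 96 h according to the culture, then normalised and expressed as percent viability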. Direction: viability, normalised: higher = more viable cells remaining. Hit rule: 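a well counts as a hit if its normalised viability is under 80 percent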. Calls: active = viability under 80%; inactive = viability 80% or more.
Shown is a random part of the about 2,100 reagents, in one setting of the screen. 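Calls flag viability under 80% in either arm, not effects specific to rucaparib; the reference for percent is not stated.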 Entries without a mark were called inactive. A reagent listed more than once was tested more than once; the source does not tell the runs apart. Not stated in the record: the 100% reference.

{"gene symbol":"MED20","technical replicate":"1","viability, normalised (%)":"59.1 (active)"}
{"gene symbol":"MED20","technical replicate":"2","viability, normalised (%)":"53.6 (active)"}
{"gene symbol":"MED20","technical replicate":"3","viability, normalised (%)":"47.8 (active)"}
{"gene symbol":"BTG2","technical replicate":"1","viability, normalised (%)":82}
{"gene symbol":"BTG2","technical replicate":"2","viability, normalised (%)":89.3}
{"gene symbol":"BTG2","technical replicate":"3","viability, normalised (%)":"65.3 (active)"}
{"gene symbol":"MAP3K20","technical replicate":"1","viability, normalised (%)":80.5}
{"gene symbol":"MAP3K20","technical replicate":"2","viability, normalised (%)":"67.1 (active)"}
{"gene symbol":"MAP3K20","technical replicate":"3","viability, normalised (%)":"75.5 (active)"}
{"gene symbol":"PHF14","technical replicate":"1","viability, normalised (%)":"58.3 (active)"}
{"gene symbol":"PHF14","technical replicate":"2","viability, normalised (%)":"50.8 (active)"}
{"gene symbol":"PHF14","technical replicate":"3","viability, normalised (%)":"48.2 (active)"}
{"gene symbol":"JMJD8","technical replicate":"1","viability, normalised (%)":"58.4 (active)"}
{"gene symbol":"JMJD8","technical replicate":"2","viability, normalised (%)":"58.5 (active)"}
{"gene symbol":"JMJD8","technical replicate":"3","viability, normalised (%)":"79.5 (active)"}
{"gene symbol":"LMTK1","technical replicate":"1","viability, normalised (%)":86.5}
{"gene symbol":"LMTK1","technical replicate":"2","viability, normalised (%)":97.6}
{"gene symbol":"LMTK1","technical replicate":"3","viability, normalised (%)":101}
{"gene symbol":"POLQ","technical replicate":"1","viability, normalised (%)":"61.4 (active)"}
{"gene symbol":"POLQ","technical replicate":"1","viability, normalised (%)":"54 (active)"}
{"gene symbol":"POLQ","technical replicate":"2","viability, normalised (%)":"44 (active)"}
{"gene symbol":"POLQ","technical replicate":"2","viability, normalised (%)":86.7}
{"gene symbol":"POLQ","technical replicate":"3","viability, normalised (%)":"67.5 (active)"}
{"gene symbol":"POLQ","technical replicate":"3","viability, normalised (%)":"47.8 (active)"}
{"gene symbol":"DYRK3","technical replicate":"1","viability, normalised (%)":97.5}
{"gene symbol":"DYRK3","technical replicate":"2","viability, normalised (%)":"77.3 (active)"}
{"gene symbol":"DYRK3","technical replicate":"3","viability, normalised (%)":91.8}
{"gene symbol":"MAPK3","technical replicate":"1","viability, normalised (%)":96.8}
{"gene symbol":"MAPK3","technical replicate":"2","viability, normalised (%)":98}
{"gene symbol":"MAPK3","technical replicate":"3","viability, normalised (%)":93.3}
{"gene symbol":"PRKG1","technical replicate":"1","viability, normalised (%)":"76.9 (active)"}
{"gene symbol":"PRKG1","technical replicate":"2","viability, normalised (%)":"76.6 (active)"}
{"gene symbol":"PRKG1","technical replicate":"3","viability, normalised (%)":"72 (active)"}

Laid out differently: results already given.
gene symbol | technical replicate | viability, normalised (%)
MED20 | 2 | 53.6 (active)
MED20 | 3 | 47.8 (active)
BTG2 | 1 | 82
BTG2 | 2 | 89.3
BTG2 | 3 | 65.3 (active)
